Data from PMC6262058.
Results are given in words; binding and its absence hold for the method and conditions named. Binding calls can cover weak binding; strength is not graded here.

Molecular target: SmbHLH37 (yeast two-hybrid fusion) (Salvia miltiorrhiza)
Experiment: two-hybrid; SmbHLH37 fused with the DNA-binding domain (pGBKT7), partners fused with the activation domain (pGADT7); yeast strain AH109; growth on SD/-Ade/-Leu/-Trp/-His/X-α-gal; images on day 5

**Q.** “SmJAZ8 (yeast two-hybrid fusion) (from UniProt A0A075BFE8)” was tested. Which binding did it give?
**A.** binds
